Reference: publication PMC7179242

Sequences of proteins named here, by UniProt entry; tags and fusion partners are left off. A change or cut given only in a name is not applied to a line headed by its entry.
UniProt P39938: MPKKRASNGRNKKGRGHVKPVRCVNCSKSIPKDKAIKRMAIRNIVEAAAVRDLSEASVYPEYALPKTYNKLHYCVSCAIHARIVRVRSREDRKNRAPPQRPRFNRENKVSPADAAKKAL
UniProt P40160: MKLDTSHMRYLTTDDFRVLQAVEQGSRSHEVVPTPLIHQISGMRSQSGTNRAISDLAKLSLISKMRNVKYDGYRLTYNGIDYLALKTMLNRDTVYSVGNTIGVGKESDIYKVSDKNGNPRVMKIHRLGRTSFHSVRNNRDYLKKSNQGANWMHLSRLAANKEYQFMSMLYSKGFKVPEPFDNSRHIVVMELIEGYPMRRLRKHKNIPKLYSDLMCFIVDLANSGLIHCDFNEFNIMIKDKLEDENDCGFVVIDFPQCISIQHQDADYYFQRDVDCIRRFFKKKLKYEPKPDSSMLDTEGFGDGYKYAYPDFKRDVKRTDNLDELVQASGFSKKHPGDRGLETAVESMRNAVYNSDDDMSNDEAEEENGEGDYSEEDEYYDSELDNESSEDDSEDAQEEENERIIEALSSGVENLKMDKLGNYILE

T1: Tsr1-FPZ (S. cerevisiae) (UniProt Q07381)
T1 sequence (chain, phosphorylated on T354 or S358 (100% of the peptide)): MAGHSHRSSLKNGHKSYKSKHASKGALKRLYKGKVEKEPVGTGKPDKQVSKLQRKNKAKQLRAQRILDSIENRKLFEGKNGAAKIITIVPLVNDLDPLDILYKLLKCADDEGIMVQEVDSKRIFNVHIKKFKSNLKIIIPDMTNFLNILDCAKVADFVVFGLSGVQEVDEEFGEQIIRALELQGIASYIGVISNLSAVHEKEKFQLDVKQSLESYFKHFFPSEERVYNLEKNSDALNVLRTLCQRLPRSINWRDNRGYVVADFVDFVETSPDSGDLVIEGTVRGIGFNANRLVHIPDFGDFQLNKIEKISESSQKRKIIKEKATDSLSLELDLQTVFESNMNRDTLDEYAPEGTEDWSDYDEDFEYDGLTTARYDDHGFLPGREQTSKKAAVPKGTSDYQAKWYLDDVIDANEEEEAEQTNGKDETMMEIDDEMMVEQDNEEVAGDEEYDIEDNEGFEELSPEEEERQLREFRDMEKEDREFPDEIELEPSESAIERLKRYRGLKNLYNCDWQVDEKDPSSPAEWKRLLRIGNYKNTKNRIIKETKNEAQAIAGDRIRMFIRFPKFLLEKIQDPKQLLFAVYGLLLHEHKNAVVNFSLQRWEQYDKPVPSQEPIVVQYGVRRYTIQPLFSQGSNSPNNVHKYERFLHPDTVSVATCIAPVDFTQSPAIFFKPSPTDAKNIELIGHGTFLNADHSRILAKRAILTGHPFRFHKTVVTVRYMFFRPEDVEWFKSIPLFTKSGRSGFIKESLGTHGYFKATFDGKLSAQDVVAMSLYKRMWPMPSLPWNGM

T2: Tsr1-FPZ (S. cerevisiae), Q07381
T2 chain: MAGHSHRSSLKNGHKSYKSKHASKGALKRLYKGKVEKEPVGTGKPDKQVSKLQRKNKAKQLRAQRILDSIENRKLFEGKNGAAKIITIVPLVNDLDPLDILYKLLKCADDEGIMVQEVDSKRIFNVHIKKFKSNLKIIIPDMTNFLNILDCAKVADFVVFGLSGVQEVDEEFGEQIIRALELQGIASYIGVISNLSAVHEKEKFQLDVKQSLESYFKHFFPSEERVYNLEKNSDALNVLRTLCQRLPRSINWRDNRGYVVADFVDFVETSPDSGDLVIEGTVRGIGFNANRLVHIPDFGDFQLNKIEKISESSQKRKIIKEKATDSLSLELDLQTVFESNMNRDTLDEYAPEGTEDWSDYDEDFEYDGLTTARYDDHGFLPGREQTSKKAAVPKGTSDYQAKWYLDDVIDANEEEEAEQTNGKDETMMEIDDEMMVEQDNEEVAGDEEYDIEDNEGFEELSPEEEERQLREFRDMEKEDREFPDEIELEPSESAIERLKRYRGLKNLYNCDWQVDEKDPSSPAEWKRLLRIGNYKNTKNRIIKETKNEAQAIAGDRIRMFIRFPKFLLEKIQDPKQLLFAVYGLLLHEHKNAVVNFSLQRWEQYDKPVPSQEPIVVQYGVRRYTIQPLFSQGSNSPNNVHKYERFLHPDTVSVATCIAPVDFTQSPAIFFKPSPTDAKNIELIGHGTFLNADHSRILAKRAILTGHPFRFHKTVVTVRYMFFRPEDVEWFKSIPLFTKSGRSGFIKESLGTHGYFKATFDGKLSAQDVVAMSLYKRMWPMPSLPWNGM


Assays:
[1] = target: T1, Tsr1-FPZ (S. cerevisiae); assay: affinity purification with mass spectrometry; Tsr1-FPZ as bait from yeast lysate; IgG Sepharose, PreScission elution, anti-Flag M2 gel, Flag peptide elution, 10%-30% sucrose gradient; fraction 8 (free pre-40S particles, with 20S pre-rRNA) analysed by label-free bottom-up nanoLC-MS/MS
[2] = target: T2, Tsr1-FPZ (S. cerevisiae), Q07381; assay: as above; conditions: remark: other sources report otherwise

Molecule | binding [1] | binding [2]
Enp1 (protein, UniProt P38333 1-483) MARASSTKARKQRHDPLLKDLDAAQGTLKKINKKKLAQNDAANHDAANEEDGYIDSKASRKILQLAKEQQDEIEGEELAESERNKQFEARFTTMSYDDEDEDEDEDEEAFGEDISDFEPEGDYKEEEEIVEIDEEDAAMFEQYFKKSDDFNSLSGSYNLADKIMASIREKESQVEDMQDDEPLANEQNTSRGNISSGLKSGEGVALPEKVIKAYTTVGSILKTWTHGKLPKLFKVIPSLRNWQDVIYVTNPEEWSPHVVYEATKLFVSNLTAKESQKFINLILLERFRDNIETSEDHSLNYHIYRAVKKSLYKPSAFFKGFLFPLVETGCNVREATIAGSVLAKVSVPALHSSAALSYLLRLPFSPPTTVFIKILLDKKYALPYQTVDDCVYYFMRFRILDDGSNGEDATRVLPVIWHKAFLTFAQRYKNDITQDQRDFLLETVRQRGHKDIGPEIRRELLAGASREFVDPQEANDDLMIDVN | binds | –
Nob1, Q08444 1-459 (protein, here or on the partner: phosphorylated on T354 or S358 (100% of the peptide)) MTENQTAHVRALILDATPLITQSYTHYQNYAQSFYTTPTVFQEIKDAQARKNLEIWQSLGTLKLVHPSENSIAKVSTFAKLTGDYSVLSANDLHILALTYELEIKLNNGDWRLRKKPGDALDASKADVGTDGKQKLTEDNKKEEDSESVPKKKNKRRGGKKQKAKREAREAREAENANLELESKAEEHVEEAGSKEQICNDENIKESSDLNEVFEDADDDGDWITPENLTEAIIKDSGEDTTGSLGVEASEEDRHVALNRPENQVALATGDFAVQNVALQMNLNLMNFMSGLKIKRIRNYMLRCHACFKIFPLPKDGKPKHFCASCGGQGTLLRCAVSVDSRTGNVTPHLKSNFQWNNRGNRYSVASPLSKNSQKRYGKKGHVHSKPQENVILREDQKEYEKVIKQEEWTRRHNEKILNNWIGGGSADNYISPFAITGLKQHNVRIGKGRYVNSSKRRS | – | binds

The next lines start with the values.

binding [1] | binding [2] | Molecule
no binding | – | Rps31 (S. cerevisiae (endogenous in BY4742))
no binding | – | Rps26 (from UniProt P39938)
binds | – | Rio2 (from UniProt P40160 1-425)
– | binds | Rps3, P05750 1-240 (protein, here or on the partner: phosphorylated on T354 or S358 (100% of the peptide)) MVALISKKRKLVADGVFYAELNEFFTRELAEEGYSGVEVRVTPTKTEVIIRATRTQDVLGENGRRINELTLLVQKRFKYAPGTIVLYAERVQDRGLSAVAQAESMKFKLLNGLAIRRAAYGVVRYVMESGAKGCEVVVSGKLRAARAKAMKFADGFLIHSGQPVNDFIDTATRHVLMRQGVLGIKVKIMRDPAKSRTGPKALPDAVTIIEPKEEEPILAPSVKDYRPAEETEAQAEPVEA

No constants are given. Whether binding was seen depends on the method and setting. In cells and extracts the contact can be indirect. Here binding means that the protein was enriched with, or labelled near, the bait; the list need not be complete. For part of these data: A no says only that the protein was not detected with the bait.
